Assay: Example 4a: ROC, sensitivity/specificity and predictive value analysis of exhaled markers
Assay type: in vivo, human
Details: for Sensitivity / Specificity: at cut-off; for Cut-off: exhaled marker

| Compound | Sensitivity (5 min) | Specificity (5 min) | Cut-off (5 min) | Sensitivity (10 min) | Specificity (10 min) | Cut-off (10 min) | Sensitivity (15 min) | Specificity (15 min) | Cut-off (15 min) | Sensitivity (20 min) | Specificity (20 min) | Cut-off (20 min) | Sensitivity (30 min) | Specificity (30 min) | Cut-off (30 min) | Sensitivity (45 min) | Specificity (45 min) | Cut-off (45 min) | Sensitivity (60 min) | Specificity (60 min) | also measured |
| --- | --- | --- | --- | --- | --- | --- | --- | --- | --- | --- | --- | --- | --- | --- | --- | --- | --- | --- | --- | --- | --- |
| CCC(C)=O [Formulation 2-butanone, 2-butanone] | 0.77 | 1.00 | 20.9 ppb | 1.00 | 1.00 | 15.1 ppb | 1.00 | 1.00 | 29.8 ppb | 1.00 | 1.00 | 40.1 ppb | 1.00 | 1.00 | 9.2 ppb | 1.00 | 1.00 | 2.1 ppb | 1.00 | 1.00 | Cut-off (60 min): 2.0 ppb; ROC Area (95% confidence interval) (Time 5 min): 0.88 (0.81-0.96); ROC Area (95% confidence interval) (Time 10 min): 1.00 (1.00-1.00); ROC Area (95% confidence interval) (Time 15 min): 1.00 (1.00-1.00); ROC Area (95% confidence interval) (Time 20 min): 1.00 (1.00-1.00); ROC Area (95% confidence interval) (Time 30 min): 1.00 (1.00-1.00); ROC Area (95% confidence interval) (Time 45 min): 1.00 (1.00-1.00); ROC Area (95% confidence interval) (Time 60 min): 1.00 (1.00-1.00) |
| CCCC(C)=O [Formulation 2-pentanone, 2-pentanone] | 0.87 | 1.00 | 29.1 ppb | 1.00 | 1.00 | 56.5 ppb | 1.00 | 1.00 | 59.1 ppb | 1.00 | 1.00 | 57.5 ppb | 1.00 | 1.00 | 27.6 ppb | 1.00 | 1.00 | 10.0 ppb | 1.00 | 1.00 | Cut-off (60 min): 3.5 ppb; ROC Area (95% confidence interval) (Time 5 min): 0.93 (0.87-0.99); ROC Area (95% confidence interval) (Time 10 min): 1.00 (1.00-1.00); ROC Area (95% confidence interval) (Time 15 min): 1.00 (1.00-1.00); ROC Area (95% confidence interval) (Time 20 min): 1.00 (1.00-1.00); ROC Area (95% confidence interval) (Time 30 min): 1.00 (1.00-1.00); ROC Area (95% confidence interval) (Time 45 min): 1.00 (1.00-1.00); ROC Area (95% confidence interval) (Time 60 min): 1.00 (1.00-1.00) |
